No constants are given. Whether binding was seen depends on the method and setting. Some results given as binding are weak or reduced against the parent protein; the word gives no strength. Sequences can lack the tags named with a protein.

Test [1] deals with T1, T. thermophilus Pex12 (1–439) with an N-terminal SBP tag (Thermothelomyces thermophilus) (UniProt G2Q5N0).
T1 sequence: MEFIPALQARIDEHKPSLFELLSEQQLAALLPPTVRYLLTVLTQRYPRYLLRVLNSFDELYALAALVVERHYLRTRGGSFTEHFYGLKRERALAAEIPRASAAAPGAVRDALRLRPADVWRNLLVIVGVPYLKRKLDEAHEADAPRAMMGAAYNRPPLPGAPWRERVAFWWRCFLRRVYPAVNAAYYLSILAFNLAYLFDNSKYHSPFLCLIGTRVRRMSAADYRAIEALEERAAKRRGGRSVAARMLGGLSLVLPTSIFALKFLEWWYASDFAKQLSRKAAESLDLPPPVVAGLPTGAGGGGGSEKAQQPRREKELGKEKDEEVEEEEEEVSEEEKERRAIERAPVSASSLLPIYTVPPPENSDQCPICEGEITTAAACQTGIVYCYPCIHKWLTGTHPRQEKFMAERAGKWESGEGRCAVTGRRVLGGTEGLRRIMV
The experiment in a line: cryo-EM structure; Pex2–Pex10–Pex12–Fab complex in digitonin, PEGylated with MS(PEG)12; 3.1 Å overall resolution; both purified.

Test [2] has as its target T2, T. thermophilus Pex10 (1–454) (Thermothelomyces thermophilus) (UniProt G2Q0E2).
T2 sequence: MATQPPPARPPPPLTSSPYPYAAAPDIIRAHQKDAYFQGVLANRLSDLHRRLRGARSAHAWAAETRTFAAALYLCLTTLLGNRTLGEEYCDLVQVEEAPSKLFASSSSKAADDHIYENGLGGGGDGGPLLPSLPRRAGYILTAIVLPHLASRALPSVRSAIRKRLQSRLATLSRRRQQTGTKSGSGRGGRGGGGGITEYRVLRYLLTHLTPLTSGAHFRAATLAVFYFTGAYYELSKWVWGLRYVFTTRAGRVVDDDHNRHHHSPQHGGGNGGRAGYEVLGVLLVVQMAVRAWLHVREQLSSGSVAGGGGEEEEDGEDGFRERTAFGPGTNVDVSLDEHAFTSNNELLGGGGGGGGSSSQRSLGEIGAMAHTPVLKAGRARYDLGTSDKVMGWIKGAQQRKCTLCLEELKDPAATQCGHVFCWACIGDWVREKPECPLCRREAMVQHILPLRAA
The test is described as above.

B1: T. thermophilus Pex10 (1–454) (natural protein, Thermothelomyces thermophilus, UniProt G2Q0E2 1-454, looked up)
chain: T2 sequence
notes: Pex10 of Thermothelomyces thermophilus, residues 1-454; codon-optimised synthetic gene; also called T.t; Pex10; source: P. pastoris SMD1168, co-expressed with Pex2 and Pex12, purified (streptavidin resin, gel filtration) in digitonin
Turning to B1, the binding result in test [1] was “binds”.

B2: T. thermophilus Pex2 (140–495) (domain or fragment, Thermothelomyces thermophilus, UniProt G2Q1C9 140-495, looked up)
chain: SREGTRPAFRVGQVDAELLDEELVELLRGQVREALRYVGGGGGGGGGGGGGGVGSGVAQDWEAEISLALRAVLFKLTVWDHDATYGAALQNLKYTDARRDGPALAPPSRWQKALYGLVTVGGRYLWAKWEDWLLEQDDGFEGPSPRVKRLARWTSALSTLHASAALVSFLVFLLHGRYRTLLDRLLRMRLAPPTSQVSREVSFEYLNRQLVWHAFTEFLLFVLPLVGINRWRRWLARTWRRTKKIMTADADGGAGDKKGEYSFLPERTCAICYRDQNSASSETELLAAASGGVVGSAQTDITNPYEAIPCGCTYCFVCLATRIEREEGEGWPCLRCGELIKECKPWNGDVLEEPQV
notes: Pex2 of Thermothelomyces thermophilus, residues 140-495; codon-optimised synthetic gene; also called T.t; Pex2; source: P. pastoris SMD1168, co-expressed with Pex10 and Pex12, purified (streptavidin resin, gel filtration) in digitonin
As for B2, the binding entry in test [2] and in test [1] was “binds” each time.

The values are drawn from PMC9279156, “A peroxisomal ubiquitin ligase complex forms a retrotranslocation channel” (Nature, 2022).
